The results in this text go back to article PMC9946837.

The chains behind the UniProt entries cited, without tags or fusion partners. Where a name states a change or a piece, a line headed by the entry shows the natural chain unless it says otherwise.
UniProt Q8CHK4: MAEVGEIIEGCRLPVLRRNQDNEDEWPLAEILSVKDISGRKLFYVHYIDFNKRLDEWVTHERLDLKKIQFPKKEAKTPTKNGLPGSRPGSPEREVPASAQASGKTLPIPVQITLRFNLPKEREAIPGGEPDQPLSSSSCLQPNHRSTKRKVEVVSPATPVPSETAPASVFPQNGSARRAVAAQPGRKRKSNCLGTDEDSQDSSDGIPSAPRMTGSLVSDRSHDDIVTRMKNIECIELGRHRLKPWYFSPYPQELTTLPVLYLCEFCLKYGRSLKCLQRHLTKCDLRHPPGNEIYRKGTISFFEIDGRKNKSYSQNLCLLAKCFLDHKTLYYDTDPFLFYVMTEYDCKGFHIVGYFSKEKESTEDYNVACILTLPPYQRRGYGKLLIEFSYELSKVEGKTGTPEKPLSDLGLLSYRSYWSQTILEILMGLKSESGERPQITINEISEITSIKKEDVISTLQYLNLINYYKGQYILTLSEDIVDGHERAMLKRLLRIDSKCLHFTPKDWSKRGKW
UniProt A2AQ25: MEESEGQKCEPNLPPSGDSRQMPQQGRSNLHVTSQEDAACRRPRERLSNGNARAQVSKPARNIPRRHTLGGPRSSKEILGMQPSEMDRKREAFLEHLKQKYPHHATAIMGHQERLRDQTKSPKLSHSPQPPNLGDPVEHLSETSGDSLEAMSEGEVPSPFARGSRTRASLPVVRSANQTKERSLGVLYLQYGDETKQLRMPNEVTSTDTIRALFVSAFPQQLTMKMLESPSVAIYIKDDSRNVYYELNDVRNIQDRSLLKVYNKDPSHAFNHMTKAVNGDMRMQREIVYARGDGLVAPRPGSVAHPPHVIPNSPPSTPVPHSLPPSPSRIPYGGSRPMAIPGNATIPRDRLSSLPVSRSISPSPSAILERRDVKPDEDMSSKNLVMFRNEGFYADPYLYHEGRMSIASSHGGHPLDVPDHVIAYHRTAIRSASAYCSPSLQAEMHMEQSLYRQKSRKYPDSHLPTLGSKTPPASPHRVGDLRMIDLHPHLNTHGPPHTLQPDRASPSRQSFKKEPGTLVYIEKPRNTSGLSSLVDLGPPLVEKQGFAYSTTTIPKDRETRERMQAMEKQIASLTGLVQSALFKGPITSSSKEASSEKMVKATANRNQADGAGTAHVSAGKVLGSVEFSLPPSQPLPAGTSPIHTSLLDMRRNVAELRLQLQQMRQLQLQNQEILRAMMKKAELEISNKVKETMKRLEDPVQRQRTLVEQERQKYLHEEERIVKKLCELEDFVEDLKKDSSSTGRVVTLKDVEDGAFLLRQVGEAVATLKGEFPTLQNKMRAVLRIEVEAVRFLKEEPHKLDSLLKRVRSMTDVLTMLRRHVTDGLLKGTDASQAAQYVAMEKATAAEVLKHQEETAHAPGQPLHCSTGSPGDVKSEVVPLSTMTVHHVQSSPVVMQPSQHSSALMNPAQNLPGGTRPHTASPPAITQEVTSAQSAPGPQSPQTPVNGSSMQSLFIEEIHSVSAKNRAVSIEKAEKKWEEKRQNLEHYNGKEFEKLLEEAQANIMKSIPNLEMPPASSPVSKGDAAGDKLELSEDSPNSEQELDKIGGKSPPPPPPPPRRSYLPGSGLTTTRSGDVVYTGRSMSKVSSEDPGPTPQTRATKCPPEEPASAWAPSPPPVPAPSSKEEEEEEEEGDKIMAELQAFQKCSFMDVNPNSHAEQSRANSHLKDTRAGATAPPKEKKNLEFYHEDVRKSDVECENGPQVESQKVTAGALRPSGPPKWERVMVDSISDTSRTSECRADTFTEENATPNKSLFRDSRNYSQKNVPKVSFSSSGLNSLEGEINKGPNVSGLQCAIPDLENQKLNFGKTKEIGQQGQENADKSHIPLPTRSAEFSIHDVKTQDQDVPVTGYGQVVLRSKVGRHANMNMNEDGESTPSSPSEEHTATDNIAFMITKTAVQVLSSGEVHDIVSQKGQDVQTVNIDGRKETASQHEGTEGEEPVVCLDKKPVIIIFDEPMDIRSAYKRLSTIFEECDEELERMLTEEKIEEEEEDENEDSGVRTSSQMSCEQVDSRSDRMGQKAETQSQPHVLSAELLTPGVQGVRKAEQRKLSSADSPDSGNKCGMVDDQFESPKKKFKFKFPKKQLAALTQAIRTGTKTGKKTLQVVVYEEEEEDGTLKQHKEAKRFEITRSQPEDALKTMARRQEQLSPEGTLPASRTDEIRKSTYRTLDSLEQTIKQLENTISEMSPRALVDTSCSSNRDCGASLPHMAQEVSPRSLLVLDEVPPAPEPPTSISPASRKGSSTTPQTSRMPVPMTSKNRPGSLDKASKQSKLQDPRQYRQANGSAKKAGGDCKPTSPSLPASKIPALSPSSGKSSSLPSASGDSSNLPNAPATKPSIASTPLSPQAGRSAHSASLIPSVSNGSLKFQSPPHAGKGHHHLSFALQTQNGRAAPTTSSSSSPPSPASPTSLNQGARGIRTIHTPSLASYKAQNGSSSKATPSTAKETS
UniProt Q61324: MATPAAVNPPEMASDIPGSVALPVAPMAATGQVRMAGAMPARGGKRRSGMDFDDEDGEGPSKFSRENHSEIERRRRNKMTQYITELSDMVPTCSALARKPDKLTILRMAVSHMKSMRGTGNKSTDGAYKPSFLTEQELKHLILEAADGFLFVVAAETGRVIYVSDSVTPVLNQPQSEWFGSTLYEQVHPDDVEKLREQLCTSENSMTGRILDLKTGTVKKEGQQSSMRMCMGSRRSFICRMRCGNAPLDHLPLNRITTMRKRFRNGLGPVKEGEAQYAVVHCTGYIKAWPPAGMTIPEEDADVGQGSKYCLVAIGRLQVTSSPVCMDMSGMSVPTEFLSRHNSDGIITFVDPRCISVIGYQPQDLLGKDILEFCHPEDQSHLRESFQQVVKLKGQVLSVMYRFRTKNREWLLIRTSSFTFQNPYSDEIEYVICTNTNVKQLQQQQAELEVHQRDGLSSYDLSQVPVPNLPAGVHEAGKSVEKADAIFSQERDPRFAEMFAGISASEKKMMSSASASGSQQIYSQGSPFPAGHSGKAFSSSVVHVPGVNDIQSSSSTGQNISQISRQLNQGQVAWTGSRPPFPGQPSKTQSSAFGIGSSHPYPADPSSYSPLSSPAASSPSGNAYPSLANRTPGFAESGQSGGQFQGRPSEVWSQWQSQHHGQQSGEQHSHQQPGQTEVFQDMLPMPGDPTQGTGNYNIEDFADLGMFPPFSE

No constants are given. Whether binding was seen depends on the method and setting. In cells and extracts the contact can be indirect. These calls come from enrichment with a bait or labelling near it, and not all partners need be listed. For some of these results: Where a sequence is shown, tags or fusion partners need not be part of it.

In one test the target is T1, NPAS4–Flag-HA (mouse) (UniProt Q8BGD7).
T1 sequence: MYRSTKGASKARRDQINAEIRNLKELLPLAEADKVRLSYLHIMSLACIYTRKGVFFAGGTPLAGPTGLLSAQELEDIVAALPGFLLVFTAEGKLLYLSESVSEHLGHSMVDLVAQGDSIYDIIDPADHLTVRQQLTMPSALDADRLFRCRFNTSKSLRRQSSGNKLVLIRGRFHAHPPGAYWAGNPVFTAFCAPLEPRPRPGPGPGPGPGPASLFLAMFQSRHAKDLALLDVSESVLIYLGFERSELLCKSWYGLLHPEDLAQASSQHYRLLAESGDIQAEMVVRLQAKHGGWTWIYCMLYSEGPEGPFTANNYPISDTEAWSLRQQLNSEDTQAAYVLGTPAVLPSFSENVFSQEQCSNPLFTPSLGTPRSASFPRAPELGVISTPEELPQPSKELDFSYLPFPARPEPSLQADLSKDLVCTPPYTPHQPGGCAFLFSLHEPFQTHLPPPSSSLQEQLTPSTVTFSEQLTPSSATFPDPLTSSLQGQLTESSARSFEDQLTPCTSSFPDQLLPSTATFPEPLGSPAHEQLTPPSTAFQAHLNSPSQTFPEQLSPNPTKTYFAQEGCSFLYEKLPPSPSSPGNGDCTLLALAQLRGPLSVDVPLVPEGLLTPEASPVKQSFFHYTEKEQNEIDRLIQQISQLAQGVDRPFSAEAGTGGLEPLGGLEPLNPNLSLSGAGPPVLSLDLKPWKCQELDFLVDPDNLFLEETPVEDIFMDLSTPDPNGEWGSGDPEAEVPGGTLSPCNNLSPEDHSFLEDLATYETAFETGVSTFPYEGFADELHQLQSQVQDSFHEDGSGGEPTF
Nature of the test: affinity purification with mass spectrometry; anti-Flag IP from high molecular weight glycerol gradient fractions 1–3 of forebrain nuclear lysates of Npas4–Flag-HA, Tip60-H3F and wild-type mice 2 h after kainic acid; eluates of fractions pooled.

Test [1] has as its target TIP60-Flag (Tip60-H3F knock-in mice) (mouse) (UniProt Q8CHK4). The description is as above.

In the case of ETL4 (from UniProt A2AQ25 1-1946), the binding entry (with NPAS4–Flag-HA (mouse); in test [1]) was “binds” throughout. As for ARNT2 (from UniProt Q61324 1-712), the binding entry in test [1] is on record as “binds”.

B1: NPAS4 (protein, UniProt Q8BGD7 1-802)
chain: T1 sequence
Regarding B1, in test [1], the binding result is listed as “binds”.
